No constants are given. Whether binding was seen depends on the method and setting. Binding seen in cells or lysates may run through a third protein. A yes stands for co-enrichment or nearness to the bait. Other partners may have been found.
Target: Flag-tagged OSBPL2 (oxysterol-binding protein like 2) (UniProt Q9H1P3)
Experiment: affinity purification with mass spectrometry; Flag-tagged OSBPL2 expressed in HEK293Ta cells; complexes pulled down with anti-Flag magnetic beads; protein bands subjected to LC-MS/MS

Chains of the proteins cited; added tags and fusions are not shown.
UniProt Q9H1P3: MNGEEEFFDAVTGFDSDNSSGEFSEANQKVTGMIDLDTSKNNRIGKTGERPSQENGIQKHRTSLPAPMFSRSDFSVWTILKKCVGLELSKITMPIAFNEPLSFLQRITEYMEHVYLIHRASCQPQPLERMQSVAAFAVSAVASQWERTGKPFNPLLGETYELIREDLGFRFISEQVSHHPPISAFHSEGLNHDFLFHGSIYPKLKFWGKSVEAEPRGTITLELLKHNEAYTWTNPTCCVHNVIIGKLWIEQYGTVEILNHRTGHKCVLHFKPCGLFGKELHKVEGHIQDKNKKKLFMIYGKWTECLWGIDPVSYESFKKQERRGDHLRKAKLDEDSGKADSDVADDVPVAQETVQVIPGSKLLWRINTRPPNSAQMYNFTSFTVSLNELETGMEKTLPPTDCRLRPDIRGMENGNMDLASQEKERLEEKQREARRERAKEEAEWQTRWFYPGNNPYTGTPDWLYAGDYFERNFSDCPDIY
UniProt P31939: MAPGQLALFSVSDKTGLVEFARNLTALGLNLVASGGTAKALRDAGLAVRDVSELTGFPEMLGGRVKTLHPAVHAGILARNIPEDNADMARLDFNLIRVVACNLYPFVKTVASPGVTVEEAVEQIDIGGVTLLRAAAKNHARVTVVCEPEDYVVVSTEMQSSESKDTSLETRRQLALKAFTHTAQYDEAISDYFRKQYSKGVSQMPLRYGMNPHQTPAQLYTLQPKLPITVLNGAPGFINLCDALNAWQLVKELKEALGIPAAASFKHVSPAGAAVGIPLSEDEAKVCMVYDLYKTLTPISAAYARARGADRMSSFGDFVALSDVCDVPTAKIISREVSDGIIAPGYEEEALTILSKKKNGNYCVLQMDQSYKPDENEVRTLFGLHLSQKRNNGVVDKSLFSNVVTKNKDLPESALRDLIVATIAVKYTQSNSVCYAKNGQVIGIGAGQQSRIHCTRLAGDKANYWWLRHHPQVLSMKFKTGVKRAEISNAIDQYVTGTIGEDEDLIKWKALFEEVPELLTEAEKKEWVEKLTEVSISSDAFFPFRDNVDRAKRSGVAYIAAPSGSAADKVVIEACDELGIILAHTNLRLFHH

Substance: ATIC found by mass spectrometry in Flag-OSBPL2 complexes from HEK293Ta cells (from UniProt P31939 1-592) (enzyme)
- binding: binds

— PMC6700064
